Assay results: PubChem BioAssay AID2685 (National Center for Advancing Translational Sciences (NCATS), 2010)
The whole screen tested about 320,000 compounds, of which about 2,100 (0.66%) were called active. The shares of active, inactive and inconclusive entries below differ from those in the screen. Calls follow the shape of the dose curve; as a rule, active = well fitted inhibition curve with a large enough effect in the signal ratio, with a control signal flat (not every such curve was filed as active); inconclusive = small, poorly fitted or top-dose-only effect, or effect the other way, or a change in a side signal; inactive = flat fitted curve, though single readings scatter; the % refers to the signal ratio. Potencies beside an inconclusive call are fits to weak or partial responses and may not hold up.

Assay: qHTS Assay for Lipid Storage Modulators in Drosophila S3 Cells
Conditions: BODIPY lipid droplet fluorescence, 18-24 h, cells fed with added oleic acid; lipid storage change, negative = inhibition: at 46.1 µM (top of the series) unless noted
Summary of the method: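 Drosophila S3 cells got compounds at several concentrations plus oleic acid (400 uM solution). Laser-scanning cytometry with 488 nm excitation read lipid droplets at 500-530 nm and cells at 575-640 nm. Percent activity was relative to 20 uM Triacsin C.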
% is scaled to controls: 0 for no effect and ±100 for the full control effect; potency is read from the fitted curve at half-maximal effect.

For CC1CN(C(=O)c2cc(S(=O)(=O)N3CCCCC3)ccc2Cl)CC(C)O1 (stereo not drawn), which Potency is on record?
The Potency was inconclusive: 1.46 µM [activator, partial curve].

Which lipid storage change, negative = inhibition does the source give for C[n+]1ccc(/C=C/c2cccs2)cc1 here?
The lipid storage change, negative = inhibition was inconclusive: -5.64%.

For O=C(CN1CCN(Cc2ccc3c(c2)OCO3)CC1)N1CCc2[nH]c3ccccc3c2C1, which lipid storage change, negative = inhibition is on record?
The lipid storage change, negative = inhibition was inconclusive: 42.3%.

With CCC(C)c1ccc(NC(=O)COC(=O)C2=COCCO2)cc1 (stereo not drawn) as the compound, how does the lipid storage change, negative = inhibition read?
Its lipid storage change, negative = inhibition is inconclusive: 20.1%.

For O=C(Nc1ccc2c(c1)OCO2)c1cc(-c2ccc(O)cc2)on1, which Potency is on record?
The Potency was inconclusive: 1.84 µM [activator, partial curve].

With C=CCNS(=O)(=O)c1cccc(C(C)=O)c1 as the compound, how does the lipid storage change, negative = inhibition read?
Its lipid storage change, negative = inhibition is inconclusive: 33.3%.

For COc1cc(C(c2c(C)[nH][nH]c2=O)c2c(C)[nH][nH]c2=O)cc(Br)c1OC, which lipid storage change, negative = inhibition is on record?
The lipid storage change, negative = inhibition was inconclusive: 1.76%.

Which lipid storage change, negative = inhibition does the source give for CN(C)S(=O)(=O)c1ccc(C(=O)Nc2nnc(-c3cccs3)o2)cc1 here?
The lipid storage change, negative = inhibition was inconclusive: -19.1%.

For CC(C)N(C(C)C)S(=O)(=O)c1ccc(NN)nc1, which lipid storage change, negative = inhibition is on record?
Its lipid storage change, negative = inhibition is inconclusive: 19.4%.

With Cc1nn(-c2ccccc2)c(C)c1/C=C/C(=O)OC(C)C(=O)Nc1ncc(Cl)cc1Cl (stereo not drawn) as the compound, how does the lipid storage change, negative = inhibition read?
Its lipid storage change, negative = inhibition is inconclusive: 20.7%.

Which Potency does the source give for CC(C)Oc1ccc(C(=O)NCc2ccco2)cc1 here?
The Potency was inconclusive: 16.4 µM [activator, single point].

Which lipid storage change, negative = inhibition does the source give for O=C(COC(=O)COc1ccccc1[N+](=O)[O-])Nc1ccc(S(=O)(=O)N2CCCCC2)cc1 here?
The lipid storage change, negative = inhibition was inconclusive: -0.344%.

For Cc1cc(C)c2nc(-c3cccc(Cl)c3)c(C)c(C(=O)N3CCOCC3)c2c1, which lipid storage change, negative = inhibition is on record?
The lipid storage change, negative = inhibition was inconclusive: -29%.

Which lipid storage change, negative = inhibition does the source give for Cc1ccc(S(=O)(=O)N2[C@@H](c3ccccc3)C(C(=O)O)=CC[C@H]2c2ccc(C(C)C)cc2)cc1 here?
Its lipid storage change, negative = inhibition is inconclusive: 14.6%.

For COc1ccc(Br)cc1CN1CCSCC1, which Potency is on record?
The Potency was inconclusive: 29.1 µM [activator, single point].

For C=CCN=C1S/C(=C/c2cccc([N+](=O)[O-])c2)C(=O)N1CC=C, which Potency is on record?
The Potency was inconclusive: 0.013 µM [activator, full curve, poor fit].

With CN(Cc1cn[nH]c1-c1ccc(-c2ccccc2)cc1)CC1CCOCC1 as the compound, how does the lipid storage change, negative = inhibition read?
The lipid storage change, negative = inhibition was inconclusive: 19.8%.

Which lipid storage change, negative = inhibition does the source give for Cc1noc(C)c1S(=O)(=O)N1CCC(C(=O)N2CCC(C)CC2)CC1 here?
The lipid storage change, negative = inhibition was inconclusive: 3.07%.

With CCCCN1C(=O)C(=O)NC[C@@H]1C(C)CC (stereo partly drawn) as the compound, how does the lipid storage change, negative = inhibition read?
Its lipid storage change, negative = inhibition is inconclusive: 21.4%.

With CCCCc1ccc(/C=C2\C(=O)c3ccccc3C(O)=C2C(=O)OCC)cc1 as the compound, how does the lipid storage change, negative = inhibition read?
The lipid storage change, negative = inhibition was inconclusive: 17.5%.

Which Potency does the source give for O=C(COc1ccc2c(-c3ccccc3)cc(=O)oc2c1)Nc1cccnc1 here?
The Potency was inconclusive: 6.51 µM [falling, single point].

Which lipid storage change, negative = inhibition does the source give for O=C(COc1cccnc1[N+](=O)[O-])NCc1cccs1 here?
The lipid storage change, negative = inhibition was inconclusive: 26.3%.

For COc1ccc(NC(=O)c2cc3c(Cl)nc4ccccc4c3s2)c(OC)c1, which lipid storage change, negative = inhibition is on record?
Its lipid storage change, negative = inhibition is inconclusive: 24.7%.

Which Potency does the source give for CCC(C)C(=O)Nc1cc([N+](=O)[O-])ccc1Cl (stereo not drawn) here?
The Potency was inconclusive: 18.4 µM [activator, single point].

Which Potency does the source give for CCCC/C=C/C(NC(=O)CCc1ccccc1)c1ccccc1 (stereo not drawn) here?
The Potency was inconclusive: 13 µM [activator, partial curve].

For CCc1nnc(SCC(=O)NCCC2=CCCCC2)nc1CC, which Potency is on record?
Its Potency is inconclusive: 29.1 µM [activator, single point].

For O=C(NCc1ccco1)c1ccc(Cn2c(=O)c3ccccc3n(Cc3cccc(Cl)c3)c2=O)cc1, which Potency is on record?
Its Potency is inconclusive: 0.366 µM [activator, full curve].

For O=C(O)/C=C/C(=O)Nc1ccc(N2CCOCC2)nc1N1CCOCC1, which lipid storage change, negative = inhibition is on record?
Its lipid storage change, negative = inhibition is inconclusive: -26.8%.

Which lipid storage change, negative = inhibition does the source give for Cc1ccc(C)c(N2CCN(C(=O)Cc3c(C(=O)O)[nH]c4ccc(Cl)cc34)CC2)c1 here?
Its lipid storage change, negative = inhibition is inconclusive: -17.2%.

For O=C(CCCN1C(=O)C(c2ccccc2)Oc2cccnc21)Nc1cccc(F)c1 (stereo not drawn), which lipid storage change, negative = inhibition is on record?
The lipid storage change, negative = inhibition was inconclusive: -150%.

Which lipid storage change, negative = inhibition does the source give for CCc1ccccc1NC(=O)CN(C)C(=O)CSc1nn(-c2ccc(F)cc2)c(=S)s1 here?
Its lipid storage change, negative = inhibition is inconclusive: 9.56%.

Which lipid storage change, negative = inhibition does the source give for CCCCC(NC(=O)c1ccccc1)C(=O)OCC(=O)N1c2ccccc2Sc2ccccc21 (stereo not drawn) here?
The lipid storage change, negative = inhibition was inconclusive: -44%.

For Cc1cc(Br)c(NC(=O)c2c(-c3c(Cl)cccc3Cl)noc2C)c(Br)c1, which lipid storage change, negative = inhibition is on record?
Its lipid storage change, negative = inhibition is inconclusive: -0.492%.

Which lipid storage change, negative = inhibition does the source give for CN(CC(=O)NC1CCN(Cc2ccccc2)CC1)S(=O)(=O)c1ccc(Cl)s1 here?
The lipid storage change, negative = inhibition was inconclusive: 17.9%.

With COC(=O)c1ccc(NC(=O)c2cc3c(CO)cnc(C)c3oc2=Nc2cccc(C(N)=O)c2)cc1 as the compound, how does the Potency read?
Its Potency is inconclusive: 6.51 µM [falling, single point].

Which lipid storage change, negative = inhibition does the source give for N#C/C(=C\C=C\c1ccccc1)C(=O)Nc1ccccc1 here?
Its lipid storage change, negative = inhibition is inconclusive: -19.8%.

Which lipid storage change, negative = inhibition does the source give for COc1ccc(-c2nc(C#N)c(NCc3ccccc3Cl)o2)cc1 here?
The lipid storage change, negative = inhibition was inconclusive: 7.67%.

For COc1ccc(-c2cc(=O)oc3cc(OC(C)C(=O)Nc4ccc(CN5CCOCC5)cc4)ccc23)cc1 (stereo not drawn), which Potency is on record?
Its Potency is inconclusive: 2.06 µM [activator, partial curve].

With CN(c1ncc(C(F)(F)F)cc1Cl)N1C(=O)c2cccc([N+](=O)[O-])c2C1=O as the compound, how does the lipid storage change, negative = inhibition read?
The lipid storage change, negative = inhibition was inconclusive: -41.5% [cytotoxic] [at 0.369 µM].

For CCOC(=O)c1cnc2c(OC)cccc2c1Oc1ccccc1, which lipid storage change, negative = inhibition is on record?
Its lipid storage change, negative = inhibition is “inactive”.

For CC(=O)Nc1ccc(C(=O)NCC(=O)OCc2ccccc2F)cc1, which lipid storage change, negative = inhibition is on record?
The lipid storage change, negative = inhibition was inconclusive: -20.4% [at 9.22 µM].

With C1=C(c2ccc(-c3ccccc3)cc2)Nc2ncnn2C1c1ccco1 (stereo not drawn) as the compound, how does the Potency read?
Its Potency is inconclusive: 6.51 µM [activator, single point].

For Nc1cc2nc3ccccc3oc-2cc1=O, which Potency is on record?
Its Potency is inconclusive: 29.1 µM [falling, single point].

Which lipid storage change, negative = inhibition does the source give for CC1CCN(S(=O)(=O)c2ccc(Cl)cc2)CC1 here?
The lipid storage change, negative = inhibition was inconclusive: -33%.

Which lipid storage change, negative = inhibition does the source give for CC(=O)Nc1c([N+](=O)[O-])cc(C)c(Cl)c1[N+](=O)[O-] here?
Its lipid storage change, negative = inhibition is inconclusive: -5.76%.

For O=C(NCc1ccco1)c1cc2sccc2n1Cc1ccc(F)cc1, which Potency is on record?
Its Potency is inconclusive: 16.4 µM [activator, partial curve].

For O=C(O)c1cc2c(ccc3ccccc32)oc1=O, which lipid storage change, negative = inhibition is on record?
The lipid storage change, negative = inhibition was inconclusive: 101%.

With CCN(CC(=O)Nc1ccc(NC(C)=O)cc1)C(=O)CCN1C(=O)C2CC=CCC2C1=O (stereo not drawn) as the compound, how does the lipid storage change, negative = inhibition read?
Its lipid storage change, negative = inhibition is “inconclusive”.
